Experimental data published in article PMC5577323, “Oxidant sensor in the cGMP-binding pocket of PKGIα regulates nitroxyl-mediated kinase activity” (Scientific Reports, 2017).
Results are given in words; binding and its absence hold for the method and conditions named. Binding seen in cells or lysates may run through a third protein. Some entries that bind do so weakly or less than the wild type.

Molecular target: endogenous PKGIα, mouse (mouse (endogenous in mesenteric arteries and cremaster muscle)) (UniProt P0C605)
Test: cross-linking; interprotein disulfide in endogenous PKGIα of mouse mesenteric vessels (NCA or AS in vitro) and cremaster muscle (50 µmol/L NCA or AS in vivo); homogenates in non-reducing Laemmli buffer with maleimide, SDS-PAGE, western blot for PKGIα

B1: endogenous PKGIα, mouse (enzyme, UniProt P0C605 1-671)
chain: MSELEEDFAKILMLKEERIKELEKRLSEKEEEIQELKRKLHKCQSVLPVPSTHIGPRTTRAQGISAEPQTYRSFHDLRQAFRKFTKSERSKDLIKEAILDNDFMKNLELSQIQEIVDCMYPVEYGKDSCIIKEGDVGSLVYVMEDGKVEVTKEGVKLCTMGPGKVFGELAILYNCTRTATVKTLVNVKLWAIDRQCFQTIMMRTGLIKHTEYMEFLKSVPTFQSLPDEILSKLADVLEETHYENGEYIIRQGARGDTFFIISKGQVNVTREDSPSEDPVFLRTLGKGDWFGEKALQGEDVRTANVIAAEAVTCLVIDRDSFKHLIGGLDDVSNKAYEDAEAKAKYEAEAAFFANLKLSDFNIIDTLGVGGFGRVELVQLKSEESKTFAMKILKKRHIVDTRQQEHIRSEKQIMQGAHSDFIVRLYRTFKDSKYLYMLMEACLGGELWTILRDRGSFEDSTTRFYTACVVEAFAYLHSKGIIYRDLKPENLILDHRGYAKLVDFGFAKKIGFGKKTWTFCGTPEYVAPEIILNKGHDISADYWSLGILMYELLTGSPPFSGPDPMKTYNIILRGIDMIEFPKKIAKNAANLIKKLCRDNPSERLGNLKNGVKDIQKHKWFEGFNWEGLRKGTLTPPIIPSVASPTDTSNFDSFPEDSDEPPPDDNSGWDIDF
modifications: inter- and intradisulfide after HNO donors
  binding: binds
